{"sequences": {"note": "Sequences of proteins named here, by UniProt entry; tags and fusion partners are left off.", "UniProt Q8BLR2, whole entry": "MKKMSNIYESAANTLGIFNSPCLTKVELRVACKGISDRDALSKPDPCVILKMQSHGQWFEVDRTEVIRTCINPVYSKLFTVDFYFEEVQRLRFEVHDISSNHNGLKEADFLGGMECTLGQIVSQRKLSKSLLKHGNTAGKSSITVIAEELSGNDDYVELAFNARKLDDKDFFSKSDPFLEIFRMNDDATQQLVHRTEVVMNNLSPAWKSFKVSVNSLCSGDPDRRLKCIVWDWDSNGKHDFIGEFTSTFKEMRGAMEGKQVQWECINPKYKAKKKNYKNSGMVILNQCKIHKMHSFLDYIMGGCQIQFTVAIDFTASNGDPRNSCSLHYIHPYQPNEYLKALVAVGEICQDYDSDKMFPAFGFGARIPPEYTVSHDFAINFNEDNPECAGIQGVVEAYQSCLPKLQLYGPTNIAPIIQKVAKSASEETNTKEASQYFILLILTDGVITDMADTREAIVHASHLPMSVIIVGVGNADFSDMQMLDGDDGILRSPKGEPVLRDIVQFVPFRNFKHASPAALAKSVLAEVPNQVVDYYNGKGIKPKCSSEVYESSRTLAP"}, "source": "paper doi:10.1101/2021.08.09.455730", "molecular_target": "GST-Cpne4 (UniProt Q8BLR2)", "assay": "affinity purification with mass spectrometry", "note": "These are yes or no findings as the source states them, for the method shown. Binding seen in cells or lysates may run through a third protein. A yes stands for co-enrichment or nearness to the bait. Other partners may have been found."}
{"substance": "Stx1b (Syntaxin 1b) (from UniProt P61264 1-288)", "values": [{"measurement": "binding", "result": "binds"}]}
